Consider 39 sequences from PMC7862700.

The list shows a part of the results. Construct or isoform of the protein are uncertain.

The target in this test is T1, ELF2 (UniProt Q15723).
T1 sequence: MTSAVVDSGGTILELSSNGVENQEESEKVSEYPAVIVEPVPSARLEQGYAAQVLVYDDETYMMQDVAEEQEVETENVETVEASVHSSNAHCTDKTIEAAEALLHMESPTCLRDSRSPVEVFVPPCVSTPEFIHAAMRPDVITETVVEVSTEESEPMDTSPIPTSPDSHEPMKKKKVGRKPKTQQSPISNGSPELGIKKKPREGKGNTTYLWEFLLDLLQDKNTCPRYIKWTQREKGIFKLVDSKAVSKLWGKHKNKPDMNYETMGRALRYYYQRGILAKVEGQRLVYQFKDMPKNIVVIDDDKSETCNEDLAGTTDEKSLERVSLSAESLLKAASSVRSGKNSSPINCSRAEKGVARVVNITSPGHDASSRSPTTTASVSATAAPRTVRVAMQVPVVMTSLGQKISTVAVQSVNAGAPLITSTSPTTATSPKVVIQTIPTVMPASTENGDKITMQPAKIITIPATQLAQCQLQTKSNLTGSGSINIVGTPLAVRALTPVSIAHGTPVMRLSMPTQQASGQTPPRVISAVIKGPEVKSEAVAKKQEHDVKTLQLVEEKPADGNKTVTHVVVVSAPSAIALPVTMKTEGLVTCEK
Kind of test: DAPPL (digital affinity profiling via proximity ligation, sequencing). Conditions: 10 mM Tris-HCl pH 7.5, 50 mM NaCl, 1 mM DTT, 4% glycerol, room temperature, 30 min; GST-TFs on glutathione beads, 16-mer random dsDNA library, 0.1% …; high values mean tight binding; double strand, one strand shown; scale: fold enrichment (6-mer frequency, TF over GST control).
For TAGCTA, the binding signal is 1.2. ATCATA displayed a binding signal of 1.05. For the sequence AGGTAT, the binding signal stood at 1.02.

Sequence TGGTAT had a binding signal of 1.34. CCTGAT showed a binding signal of 1.48. The sequence GTTTAC came in with a binding signal of 1.12. With CCTTGG, the binding signal was determined as 1.22. In turn, ATAGCA registered a binding signal of 1.08. The figure for AATGCC is 1.09; for CTCGCC it is 1.17. As for TACGCC, the figure is 1.15; as for TGAACT, 1.24; as for CCTCTT, 1.68. Take AAATTC: the binding signal turned out to be 1.35. In the case of TAGTAC, the binding signal turned out to be 1.13. Consider CTGATA, for which the binding signal was found to be 1.12. Sequence CTTCGG yielded a binding signal of 1.38. As for CTGATC, the figure is 1.28. ACAATC registered a binding signal of 1.11. With TTTACG, the binding signal turned out to be 1.25. The sequence ATCAAT yielded a binding signal of 1.07.

As to CCTGGG, the binding signal was found to be 1.11. Sequence ATACCA showed a binding signal of 1.02. Sequence GTCTTA displayed a binding signal of 1.06. As to GCTTAT, the binding signal is 1.22. TTCGTA registered a binding signal of 1.34. In the case of ATGATC, the binding signal came out at 1.15. Turning to AAAAGG, the binding signal worked out at 1.11. For the sequence CTTTTC, the binding signal was found to be 1.49. In turn, TCGCTC had a binding signal of 1.2. The figure for CCCGCC is 1.45.

The sequence ACATTA registered a binding signal of 1.13. The figure for CATTTC is 2.19; for TACCCG it is 1.63. As to CCTCTA, the binding signal was 1.3.

Sequence AACATG had a binding signal of 1.13.

With GTCCTA, the binding signal was found to be 1.14. For the sequence TACAAG, the binding signal came out at 1. On to AGCCCC, for which the binding signal was 1.1.
